Assay results as given in publication PMC7819943, “Rice protein-binding microarrays: a tool to detect cis-acting elements near promoter regions in rice”.
This is one part of the list.

By UniProt entry, the sequences of proteins in these tests, tags left out.
UniProt Q0JBA9, entry or part of it: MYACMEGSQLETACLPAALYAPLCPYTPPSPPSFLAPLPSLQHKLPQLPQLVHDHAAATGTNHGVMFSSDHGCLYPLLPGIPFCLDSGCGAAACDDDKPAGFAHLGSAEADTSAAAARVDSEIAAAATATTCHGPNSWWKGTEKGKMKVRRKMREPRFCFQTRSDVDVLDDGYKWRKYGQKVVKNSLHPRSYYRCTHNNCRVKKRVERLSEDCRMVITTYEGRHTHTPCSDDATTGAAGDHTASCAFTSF

Target: OsWRKY34 (Oryza sativa, UniProt Q0JBA9 1-250)
Experiment: protein-binding microarray (RPBM); PBS, 2% BSA, 51.3 ng/ul salmon testes DNA, 50 uM zinc acetate, 200 nM TF, 25 C, 1 h; high values mean tight binding
Conditions: protein: recombinant; tags: N-terminal polyhistidine and DsRed monomer fusion (pET32a); label: CyDye5-dUTP incorporated in the synthesized complementary strand; 3' TTTTT single-stranded linker to array surface; dsDNA, one strand shown
In short: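 Transcription factors were made in E. coli BL21-CodonPlus as N-terminal fusions to a polyhistidine tag and DsRed, then purified on Ni–NTA. After primer extension with Cy5-dUTP and blocking with 2% BSA, a custom Agilent array was exposed for 1 h at 25 °C to 200 nM protein in PBS, 2% BSA, salmon testes DNA and 50 µM zinc acetate. Washed arrays were scanned on an Axon 4000B, and the binding signal is per-feature fluorescence intensity in arbitrary units.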

| Sequence | binding signal |
| --- | --- |
| CATTTCTATTTCTGGCCCTTTTTCTGCTGTTTATGTCCATCGGAGTCACCTAGTGCAG | 9020 fluorescence intensity (a.u.) |
| CCGCTCTCCTACTGCTCGGCCAACCAGTCATGCACACATACGGAGTCACCTAGTGCAG | 8790 fluorescence intensity (a.u.) |
| GGCGGGATATATGGTGGGGCATCTCGCGGGCGATGGCGACCGGAGTCACCTAGTGCAG | 8430 fluorescence intensity (a.u.) |
| CGCCGCCTCATCGCCTCCGCTCGCCGGCGGACGAAACAACCGGAGTCACCTAGTGCAG | 8760 fluorescence intensity (a.u.) |
| TGGTGGGATTGGTCATGGGAGTTACATTTTTAGTCCTCATCGGAGTCACCTAGTGCAG | 11100 fluorescence intensity (a.u.) |
| CGGGATTTCCAAATTCCGTTCGCGCTCTCTCTCTCCCTATCGGAGTCACCTAGTGCAG | 8210 fluorescence intensity (a.u.) |
| CGCCTCGCCCTCGCGCTCTCGCTCTCGCTCTCGCTCGCGCCGGAGTCACCTAGTGCAG | 8970 fluorescence intensity (a.u.) |
| GCTCCGTGCAACTGCAAAGTGACGTTTTTTTTACCACACGCGGAGTCACCTAGTGCAG | 9200 fluorescence intensity (a.u.) |
| GTGCTAATTCCGTTGCTTTCATAGTCCCAGGCCTATAATCCGGAGTCACCTAGTGCAG | 11800 fluorescence intensity (a.u.) |
| CACCTGTGTGCGTGCTATGATTCTTTTCTTCCCAACTTACCGGAGTCACCTAGTGCAG | 11000 fluorescence intensity (a.u.) |
| TGATTCCCAGTGACTCCATTTTATTTTTCTTCCTTTAGATCGGAGTCACCTAGTGCAG | 8350 fluorescence intensity (a.u.) |
| TCCCCATCTCCGCCGCAGCCCTCGTCGTCGTCCTCGTCCTCGGAGTCACCTAGTGCAG | 18900 fluorescence intensity (a.u.) |
| CTTCGTGACTCATCCAGCGCCTCCCCTGTGCCGCACCGGCCGGAGTCACCTAGTGCAG | 8670 fluorescence intensity (a.u.) |
| ATGATTTGGGGAATGACACTGAAGTATCCATCATTTTGCCCGGAGTCACCTAGTGCAG | 8710 fluorescence intensity (a.u.) |
| TCGAAAAAACTTCGCGCTCCACTTTCTTGTACTCTCGCTTCGGAGTCACCTAGTGCAG | 9360 fluorescence intensity (a.u.) |
| CCCCGCACGCACGAAATATCCCACTCGCTTCGACACTCTCCGGAGTCACCTAGTGCAG | 8880 fluorescence intensity (a.u.) |
| TCTTCACAGGCACTCAATGCATTCCGCCCGTCAATCCTGTCGGAGTCACCTAGTGCAG | 8450 fluorescence intensity (a.u.) |
| AGATTCATCAACTACTGCTTACATCCTTCATACTTCATTCCGGAGTCACCTAGTGCAG | 9020 fluorescence intensity (a.u.) |
| GTCTTTGTTTAGGACGGAGTAGTATTTTTTTTATCCCTAACGGAGTCACCTAGTGCAG | 9060 fluorescence intensity (a.u.) |
| ACTGTCTGTCTTGGTCAGCTCTATGGATGCCTGGTGTACTCGGAGTCACCTAGTGCAG | 8060 fluorescence intensity (a.u.) |
| AGTTGTTGTGCTTTAACTGTTTTGAGCCAGGTTATTTTGCCGGAGTCACCTAGTGCAG | 12600 fluorescence intensity (a.u.) |

| Sequence | binding signal |
| --- | --- |
| GCACTAATTTATCTGCTAGTCTTATCTTGGCCACTTGGAACGGAGTCACCTAGTGCAG | 9990 fluorescence intensity (a.u.) |
| CAAGGCCCGCCCATCCGTCTCCTCACACTCTGGCACACCTCGGAGTCACCTAGTGCAG | 8580 fluorescence intensity (a.u.) |
| GATTTTGAGTTTTTGCTTGCAACGTTTGACCACTCGTCTTCGGAGTCACCTAGTGCAG | 8290 fluorescence intensity (a.u.) |
| CCTCGCCTCGATCGGTCTCGCCCGCTCCGCTTTCACGCCGCGGAGTCACCTAGTGCAG | 9760 fluorescence intensity (a.u.) |
| GACATCGACCTCCACGCCTGCCGGCCGCCCCACCCCGATGCGGAGTCACCTAGTGCAG | 8640 fluorescence intensity (a.u.) |
| CGGTTTCATCCTCCTGTCCTCCTGGTAAGCCTCGAAAAAACGGAGTCACCTAGTGCAG | 10700 fluorescence intensity (a.u.) |
| TCTTGGTCCTTCTATTATATGCAATGACGCGCATCTGTTACGGAGTCACCTAGTGCAG | 10200 fluorescence intensity (a.u.) |
| AATCTCGTCTCGCCATTCTCTCTCTCACACACACACCTCGCGGAGTCACCTAGTGCAG | 9550 fluorescence intensity (a.u.) |
| GTCTTCTCCGGCGTGTCGTCCCTCTCCATCGCCGCCGCCACGGAGTCACCTAGTGCAG | 9100 fluorescence intensity (a.u.) |
| CAGTTCTTTTGTTTCTTTGACATCATTAGCCTTACATTTGCGGAGTCACCTAGTGCAG | 8470 fluorescence intensity (a.u.) |
| GGGGTTTCTCATGGGCCAACTATACATTCACACGCGGCCGCGGAGTCACCTAGTGCAG | 17400 fluorescence intensity (a.u.) |
| TCGTGATTGTTGTTGTTGTTGCTGCATTAGGCTGTGTTGCCGGAGTCACCTAGTGCAG | 12300 fluorescence intensity (a.u.) |
| GCATGGAGGCGTTTCATCAAACACCTTGCGCCTGCGGGAGCGGAGTCACCTAGTGCAG | 8030 fluorescence intensity (a.u.) |
| GATCTATGTGGATTGTCAGGGTCGATGTGTCTTTTGTGTGCGGAGTCACCTAGTGCAG | 8410 fluorescence intensity (a.u.) |
| ATTCCGCGCGCCGCCGCCGTCGCCGCCGCCGACGTCGCCGCGGAGTCACCTAGTGCAG | 8920 fluorescence intensity (a.u.) |
| AAGAAAAGATCGAAGCTCCTATGTTTCATCACCATCTTCACGGAGTCACCTAGTGCAG | 8440 fluorescence intensity (a.u.) |
| CCACCATCGCCATTGCCACCACCTCTCCTATATCTCGCCCCGGAGTCACCTAGTGCAG | 10500 fluorescence intensity (a.u.) |
| CTCGCTCACAGTAGCCGCTTTCATTCACCATCGATTCCTCCGGAGTCACCTAGTGCAG | 9450 fluorescence intensity (a.u.) |
| TCGATTGCTCGCCCGCGCGGCCGTTGTTGTTGCAGGCCTCCGGAGTCACCTAGTGCAG | 8060 fluorescence intensity (a.u.) |
| ATATCCAGGTTCAACGTGCACCCCAACGCTAATCGATCATCGGAGTCACCTAGTGCAG | 8880 fluorescence intensity (a.u.) |
| TAACTTCTATTCTAGAATTCGTTACATCTGGATTTTTTTTCGGAGTCACCTAGTGCAG | 10500 fluorescence intensity (a.u.) |

Given tab-delimited: part of the list above.
Sequence	binding signal
GATTTTGAGTTTTTGCTTGCAACGTTTGACCACTCGTCTTCGGAGTCACCTAGTGCAG	8290 fluorescence intensity (a.u.)
CCTCGCCTCGATCGGTCTCGCCCGCTCCGCTTTCACGCCGCGGAGTCACCTAGTGCAG	9760 fluorescence intensity (a.u.)
GACATCGACCTCCACGCCTGCCGGCCGCCCCACCCCGATGCGGAGTCACCTAGTGCAG	8640 fluorescence intensity (a.u.)
CGGTTTCATCCTCCTGTCCTCCTGGTAAGCCTCGAAAAAACGGAGTCACCTAGTGCAG	10700 fluorescence intensity (a.u.)
TCTTGGTCCTTCTATTATATGCAATGACGCGCATCTGTTACGGAGTCACCTAGTGCAG	10200 fluorescence intensity (a.u.)
AATCTCGTCTCGCCATTCTCTCTCTCACACACACACCTCGCGGAGTCACCTAGTGCAG	9550 fluorescence intensity (a.u.)
GTCTTCTCCGGCGTGTCGTCCCTCTCCATCGCCGCCGCCACGGAGTCACCTAGTGCAG	9100 fluorescence intensity (a.u.)
CAGTTCTTTTGTTTCTTTGACATCATTAGCCTTACATTTGCGGAGTCACCTAGTGCAG	8470 fluorescence intensity (a.u.)
GGGGTTTCTCATGGGCCAACTATACATTCACACGCGGCCGCGGAGTCACCTAGTGCAG	17400 fluorescence intensity (a.u.)
TCGTGATTGTTGTTGTTGTTGCTGCATTAGGCTGTGTTGCCGGAGTCACCTAGTGCAG	12300 fluorescence intensity (a.u.)
GCATGGAGGCGTTTCATCAAACACCTTGCGCCTGCGGGAGCGGAGTCACCTAGTGCAG	8030 fluorescence intensity (a.u.)
GATCTATGTGGATTGTCAGGGTCGATGTGTCTTTTGTGTGCGGAGTCACCTAGTGCAG	8410 fluorescence intensity (a.u.)
